Not every detail of the peptide structures is certain; ends, links or a residue may be inferred.
Tested on: collagenase
Test: Collagenase inhibitory activity (EnzChek Gelatinase/Collagenase Assay Kit, DQ collagen)
Type: biochemical
Method: Collagenase inhibitory activity was performed by purchasing EnzChek® Gelatinase/Collagenase Assay Kit (250-2000 Assays) reagent from Invitrogen. First, DQ collagen stock solution (1 mg/ml) was prepared by adding 1.0 ml of DDW to 1 mg DQ collagen vial. The 18 ml of DDW was added to 2 ml of 10× reaction buffer, so as to dilute reaction buffer. Then, a collagenase enzyme reagent was prepared, and diluted with reaction buffer to a final concentration of 0.2 U/ml as working solution. Three samples of 50 ? each were prepared in a 96-well plate. The 30 ? of reaction buffer was added to 20 ? of DQ collagen and sample blank, and 30 ? of working solution was added to a sample, which were then left in a light-blocked state at room temperature for about one to two hours, and then fluorescence intensity was measured at excitation wavelength 485 nm and emission wavelength 535 nm using ELISA plate reader (VICTOR X3™, PerkinElmer, US).
As a positive control, copper peptide (Comparative Example 12), which is a representative peptide widely used as a raw material for functional cosmetics, was prepared at the same concentration and used. Copper peptide has excellent skin regeneration ability and thus is used as a raw material to suppress skin aging by promoting wound healing, strengthening skin elasticity, and increasing subcutaneous fat layers.

SMILES | Collagenase inhibitory activity (0.05 mg/ml) [%] | Collagenase inhibitory activity (0.1 mg/ml) [%] | Collagenase inhibitory activity (0.5 mg/ml) [%] | Collagenase inhibitory activity (1 mg/ml) [%]
CN1CCC[C@H]1C(=O)NCC(=O)N[C@@H](CC(N)=O)C(=O)O [Me-PGN] | 3.6 ± 2.4 | 15.7 ± 1.4 | 15.7 ± 7.4 | 46.3
CCCCCCCCCCCCCCCC(=O)N1CCC[C@H]1C(=O)NCC(=O)N[C@@H](CC(N)=O)C(=O)O [Pal-PGN] | 7.4 ± 2.2 | 11 ± 5.4 | 21.3 ± 3.2 | 24.1
